Reference: patent US20190264213A1 (YEDA RESEARCH AND DEVELOPMENT, published 2019)
At least one result comes from cells or an extract, where the contact may be indirect. Negatives hold for the conditions tested. Where a protein sequence is shown, tags need not be part of it.

Target: T1, AimR (phi3T) (Bacteriophage phi3T) (UniProt P0DOE3)
T1 sequence: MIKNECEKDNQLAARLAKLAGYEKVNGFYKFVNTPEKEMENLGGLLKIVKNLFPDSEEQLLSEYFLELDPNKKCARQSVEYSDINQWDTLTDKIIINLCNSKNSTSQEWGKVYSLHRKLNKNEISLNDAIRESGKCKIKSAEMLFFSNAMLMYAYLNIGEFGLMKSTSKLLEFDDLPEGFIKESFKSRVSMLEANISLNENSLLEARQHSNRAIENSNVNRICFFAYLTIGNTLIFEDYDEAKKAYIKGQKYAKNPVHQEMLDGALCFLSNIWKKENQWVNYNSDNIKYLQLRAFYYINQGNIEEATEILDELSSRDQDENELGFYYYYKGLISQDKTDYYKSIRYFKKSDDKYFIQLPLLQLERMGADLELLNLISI
Assay: binding assay
Settings: protein in cells, protein details: C-terminal 6xHis

Sequence: TTAAATAATTGAATAGGTAATACATAATACTATCATAGACGTTTGATCCATTGGATCAGGCGTCTTTTCTAATTTTAAGGGAAAGTTCCAGAAATTCAAAAATCAAAAAA (double strand)
- binding result (ChIP-seq in B. subtilis 168, 15 min after phi3T infection, no peptide, single site in phage genome): binds
- binding result (ChIP-seq with 1 uM SAIRGA arbitrium peptide in medium, binding lost): no binding
